Results from US20020193425A1, “Cancer chemopreventative compounds and compositions and methods of treating cancers” (priority 2001, published 2002).

tested on: HL-60 (human promyelocytic) cells; test: HL-60 cell proliferation assay of quassinoids, [3H]thymidine incorporation; type: cell-based; settings: ratio of cytotoxic IC50 over antiproliferative IC50
Experimental: Induction of differentiation was determined by the ability of treated cells to produce superoxide anions (nitroblue tetrazolium (NBT)-reduction), a functional marker of mature macrophages or granulocytes. Proliferation capacity is equivalent to cell growth and was measured by incorporation of [3H]thymidine into DNA over a period of 18 h, and cytotoxic activity was evaluated by the loss of membrane integrity as shown by trypan blue exclusion. […] Although members of the brusatol and glaucarubolone series were active, when comparing members of both series that varied only in the positioning of the epoxymethano bridge, great differences were noted, as shown with yadianzolide C (5) and glaucarubolone (24), and analogues 4 (brusatol series) and 32 (glaucarubolone series).
HL-60 (human promyelocytic) cells were tested using a 4-day incubation protocol. In brief, cells in log phase (approximately 10^6 cells/mL) were diluted to […] and preincubated overnight (18 h) in 24-well plates to allow cell-growth recovery. Then, samples dissolved in DMSO were added, keeping the final DMSO concentration at 0.1% (v/v). Control cultures were treated with the same concentration of DMSO. After 4 days of incubation, the cells were analyzed to determine the percentage of cells undergoing maturation as determined by NBT reduction. Concomitantly, the effect on viability and proliferation of HL-60 cells was determined. In each experiment, 1α, 25-dihydroxyvitamin D3 (EC50=0.01 μM) and brusatol (EC50=0.07 μM) were used as reference controls. EC50 and IC50 values were calculated using 5-7 test concentrations (in duplicate), and consistent results were obtained, indicating the data reported for the related quassinoids are reliable.
(3) Cell Proliferation Assay. […] Cells were then collected on glass fiber filters (90×120 mm; Wallac, Turku, Finland) using a TOMTEC Harvester 96®.

With CC[C@@](O)(CC(=O)O[C@@H]1C(=O)O[C@@H]2C[C@@H]3C(C)=CC(=O)[C@H](O)[C@]3(C)[C@H]3[C@]4(O)OC[C@]32[C@@H]1[C@@H](C)[C@H]4O)C(C)C [compound 10, Peninsularinone] as the compound, how does the selectivity index read?
The selectivity index was 1.5 ± 0.4.

CC1=CC(=O)[C@@H](O)[C@]2(C)[C@H]3[C@]4(O)OC[C@]35[C@H]([C@@H](C)[C@H]4O)[C@@H](O)C(=O)O[C@@H]5C[C@@H]12 [compound 24, glaucarubolone] was tested. Which selectivity index did it give?
The selectivity index was 3.3 ± 1.

CC[C@](C)(O)C(=O)O[C@H]1C(=O)O[C@@H]2C[C@H]3C(C)=CC(=O)[C@@H](O)[C@]3(C)[C@H]3[C@@]4(O)OC[C@]32[C@@H]1[C@@H](C)[C@H]4O [compound 25, glaucarubinone] was tested. Which selectivity index did it give?
Its selectivity index is 2.1 ± 0.8.

With CC1=CC(=O)[C@@H](O)[C@]2(C)[C@H]3[C@@]4(O)OC[C@@]35[C@@H](C[C@@H]12)OC(=O)C[C@H]5[C@@H](C)[C@H]4O [compound 26, chaparrinone] as the compound, how does the selectivity index read?
Its selectivity index is 4.3 ± 1.4.

For samaderin B [compound 48], which selectivity index is on record?
The selectivity index was >6.

With yadanziolide C [compound 5] as the compound, how does the selectivity index read?
The selectivity index was >6.7.
